Experimental data as given in patent US20120302492A1.
Results are given in words; binding and its absence hold for the method and conditions named. Some entries that bind do so weakly or less than the wild type. For some assays here: Where a sequence is shown, tags or fusion partners need not be part of it.

The chains behind the UniProt entries cited, without tags or fusion partners. Where a name states a change or a piece, a line headed by the entry shows the natural chain unless it says otherwise. Residues count along the entry.
UniProt P08514: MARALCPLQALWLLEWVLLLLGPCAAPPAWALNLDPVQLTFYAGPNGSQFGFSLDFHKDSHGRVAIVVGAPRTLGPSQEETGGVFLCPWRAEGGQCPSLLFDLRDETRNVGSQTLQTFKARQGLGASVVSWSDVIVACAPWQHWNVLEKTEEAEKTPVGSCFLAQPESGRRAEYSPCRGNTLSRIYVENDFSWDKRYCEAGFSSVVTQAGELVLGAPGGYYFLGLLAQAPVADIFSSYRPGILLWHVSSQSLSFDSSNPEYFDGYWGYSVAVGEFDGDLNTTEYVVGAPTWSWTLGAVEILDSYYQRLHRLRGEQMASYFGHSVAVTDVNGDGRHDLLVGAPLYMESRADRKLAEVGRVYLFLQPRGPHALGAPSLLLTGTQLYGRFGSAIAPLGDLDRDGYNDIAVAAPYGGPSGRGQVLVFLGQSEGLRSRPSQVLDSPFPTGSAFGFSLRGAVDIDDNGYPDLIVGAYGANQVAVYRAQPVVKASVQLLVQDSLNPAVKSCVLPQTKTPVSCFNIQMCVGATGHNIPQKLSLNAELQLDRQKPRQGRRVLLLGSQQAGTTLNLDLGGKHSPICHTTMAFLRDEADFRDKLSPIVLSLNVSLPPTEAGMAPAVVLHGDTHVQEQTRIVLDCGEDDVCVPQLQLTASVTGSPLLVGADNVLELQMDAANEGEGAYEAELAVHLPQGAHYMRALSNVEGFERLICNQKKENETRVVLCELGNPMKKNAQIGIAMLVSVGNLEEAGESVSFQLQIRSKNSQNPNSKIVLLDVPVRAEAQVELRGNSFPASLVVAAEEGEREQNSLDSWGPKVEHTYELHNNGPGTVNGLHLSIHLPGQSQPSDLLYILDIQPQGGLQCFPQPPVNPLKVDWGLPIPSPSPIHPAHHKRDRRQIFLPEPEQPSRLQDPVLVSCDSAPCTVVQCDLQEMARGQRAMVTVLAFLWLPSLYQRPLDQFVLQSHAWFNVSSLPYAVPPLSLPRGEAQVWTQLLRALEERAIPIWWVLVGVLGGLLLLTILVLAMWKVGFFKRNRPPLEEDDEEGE
UniProt P02748, residues 22-559: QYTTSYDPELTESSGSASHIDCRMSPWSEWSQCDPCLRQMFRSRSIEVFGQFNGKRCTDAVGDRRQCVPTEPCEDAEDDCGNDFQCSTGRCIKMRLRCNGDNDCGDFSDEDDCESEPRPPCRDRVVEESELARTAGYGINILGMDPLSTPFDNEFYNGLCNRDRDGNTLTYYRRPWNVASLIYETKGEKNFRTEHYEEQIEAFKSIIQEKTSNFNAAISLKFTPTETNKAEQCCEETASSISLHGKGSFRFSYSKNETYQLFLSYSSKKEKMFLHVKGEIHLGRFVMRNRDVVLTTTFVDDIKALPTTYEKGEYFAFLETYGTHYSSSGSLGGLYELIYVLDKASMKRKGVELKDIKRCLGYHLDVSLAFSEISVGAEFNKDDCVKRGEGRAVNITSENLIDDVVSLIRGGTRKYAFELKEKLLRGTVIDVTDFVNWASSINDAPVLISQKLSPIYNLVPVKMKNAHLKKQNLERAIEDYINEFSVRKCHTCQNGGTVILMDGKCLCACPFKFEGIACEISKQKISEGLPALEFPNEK
UniProt P02671: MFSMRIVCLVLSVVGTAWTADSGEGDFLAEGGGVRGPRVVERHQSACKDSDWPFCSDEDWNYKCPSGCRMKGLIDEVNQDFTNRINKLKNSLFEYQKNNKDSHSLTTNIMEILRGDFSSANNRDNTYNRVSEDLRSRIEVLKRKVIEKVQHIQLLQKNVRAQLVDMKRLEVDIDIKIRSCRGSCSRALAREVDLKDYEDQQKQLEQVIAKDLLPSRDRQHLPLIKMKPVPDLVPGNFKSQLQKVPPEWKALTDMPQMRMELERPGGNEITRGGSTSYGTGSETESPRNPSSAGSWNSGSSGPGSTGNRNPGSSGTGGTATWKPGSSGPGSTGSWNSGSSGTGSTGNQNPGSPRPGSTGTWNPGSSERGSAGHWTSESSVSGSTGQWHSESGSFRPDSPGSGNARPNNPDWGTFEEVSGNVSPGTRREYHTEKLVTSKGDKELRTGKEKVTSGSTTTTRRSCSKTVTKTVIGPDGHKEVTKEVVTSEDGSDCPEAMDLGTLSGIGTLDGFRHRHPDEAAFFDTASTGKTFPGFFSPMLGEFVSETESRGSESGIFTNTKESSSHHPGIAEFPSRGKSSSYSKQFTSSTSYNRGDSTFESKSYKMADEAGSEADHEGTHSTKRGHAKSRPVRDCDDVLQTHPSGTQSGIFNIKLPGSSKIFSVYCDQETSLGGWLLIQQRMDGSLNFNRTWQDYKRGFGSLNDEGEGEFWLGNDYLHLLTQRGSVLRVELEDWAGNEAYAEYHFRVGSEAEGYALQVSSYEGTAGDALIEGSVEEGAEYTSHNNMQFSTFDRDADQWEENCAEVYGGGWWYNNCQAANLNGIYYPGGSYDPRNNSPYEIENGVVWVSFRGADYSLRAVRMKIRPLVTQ

B1: CD59/F1/RGD1 (designed binder, not shown: small tags and cut ends)
chain: LQCYNCPNPTVARGDWNCKTAVNCSSDFDACLITKAGLQVYNKCWKFEHCNFNDVTTRLRENELTYYCCKKDLCNFNEQLEN
B2: human CD59 wild type, FLAG-tagged soluble protein (protein, UniProt P13987 26-102, looked up, not shown: small tags and cut ends)
chain: LQCYNCPNPTADCKTAVNCSSDFDACLITKAGLQVYNKCWKFEHCNFNDVTTRLRENELTYYCCKKDLCNFNEQLEN
B3: phage wtCD59 (CD59-gIII fusion protein displayed on phage) (protein, human, UniProt P13987 26-102, looked up, not shown: small tags and cut ends; large carriers)
chain: B2 chain

Assays:
[1] = biological target: GPIIb/IIIa protein (UniProt P08514); test: ELISA, GPIIb/IIIa-coated plate
[2] = biological target: C9 complement protein (UniProt P02748); test: ELISA, C9-coated plate
[3] = biological target: C9 complement protein (UniProt P02748); test: ELISA, C9-coated plate, periplasmic fraction
[4] = biological target: GPIIb/IIIa protein (UniProt P08514); test: ELISA, GPIIb/IIIa-coated plate, periplasmic fraction
[5] = biological target: GPIIb/IIIa protein (UniProt P08514); test: competitive ELISA, GPIIb/IIIa-coated plate, against CD59 F2 RGD3
[6] = biological target: GPIIb/IIIa protein (UniProt P08514); test: competitive phage ELISA, GPIIb/IIIa-coated plate, against phage CD59/F2/RGD1
[7] = biological target: GPIIb/IIIa protein (UniProt P08514); test: phage ELISA, GPIIb/IIIa-coated plate
[8] = biological target: C9 complement protein (UniProt P02748); test: phage ELISA, C9-coated plate

Molecule | binding [1] | binding [2] | binding [3] | binding [4] | binding [8] | also measured
CD59/F1/RGD3 (from UniProt P13987 26-35; P13987 38-102) (designed binder) | binds | binds | binds | binds |  | 
CD59/F2/RGD2 (from UniProt P13987 26-56; P13987 59-102) (designed binder) | binds | binds | binds | binds |  | 
fibrinogen (from UniProt P02671 20-629; P02675 31-491; P02679 27-437) (ligand) |  |  |  |  |  | binding [5]: binds; binding [6]: binds
phage CD59/F2/RGD2 (CD59-gIII fusion protein displayed on phage) (from UniProt P13987 26-56; P13987 59-102) (designed binder) |  |  |  |  | binds | binding [7]: binds
phage CD59/F2/RGD3 (CD59-gIII fusion protein displayed on phage) (from UniProt P13987 26-56; P13987 59-102) (designed binder) |  |  |  |  | binds | binding [7]: binds
B1 | binds | binds | binds | binds |  | 
B2 |  |  | binds |  |  | 
B3 |  |  |  |  | binds | 
